Here are results for 24 substances from patent publication US20200283532A1 (Cancer Research Technology Limited, priority 2017, published 2020).

The nature of the data set: general procedure: Fmoc solid-phase peptide synthesis; aminomethyl polystyrene resin (0.8 mmol/g) with HMPP linker, Rink amide or HMP; HBTU/DIPEA. The settings on record: whole synthesis; for final HPLC purity: analytical RP-HPLC (XTerra C18); for final HPLC purity / isolated yield: scale of the general procedure 0.1 mmol.

Regarding AcHN-NK(Biotin)VPNLRGDLQVLAQKVART-NH2, the isolated mass is reported as 12.5 mg, the “final HPLC purity” value was more than 95% and the isolated yield worked out at 5%.

As for AcHN-NK(Biotin)VPNLRGDLQVLAQKVART-OH, the isolated mass was 30.1 mg, the “final HPLC purity” value is reported as more than 99% and the isolated yield is given as 12%.

Turning to DTPA-GNK(Biotin)VPNLRGDLQVLAQKVART-OH, the isolated mass was 41.9 mg, the “final HPLC purity” value is listed as more than 95% and the isolated yield stood at 15%.

DTPA-nK(Biotin)VPNLRGDLQVLAQKVART-OH: the isolated mass is on record as 37.5 mg, the “final HPLC purity” value is more than 95% and the isolated yield worked out at 13%.

Regarding DTPA-nK(Biotin)VPNLRGDLQVLAQKVARt-OH, the isolated mass was determined as 12.5 mg, the “final HPLC purity” value is on record as more than 95% and the isolated yield is listed as 4%.

“H2N-NK (Biotin) VPNLRGDLQV[norvaline]AQKVART-OH”: the isolated mass is given as 19.5 mg, the “final HPLC purity” value is listed as more than 99% and the isolated yield is recorded as 8%.

Take “H2N-NK (Biotin) VPNLRGDLQV[tert-butyl-alanine]AQKVART-OH”: the isolated mass is listed as 7.5 mg, the “final HPLC purity” value was more than 99% and the isolated yield is given as 3%.

For the substance “H2N-NK(Biotin)VPNLRGDLQVLAQ-N-MeKVART-OH”, the isolated mass is on record as 72.7 mg, the “final HPLC purity” value was more than 99% and the isolated yield was 30%.

Turning to H2N-NK(Biotin)VPNLRGDLQVLAQKVART-NH2, the isolated mass worked out at 13.4 mg, the “final HPLC purity” value is more than 95% and the isolated yield is listed as 5%.

Regarding H2N-NK(Biotin)VPNLRGDLQVLAQKVART-OH, the isolated mass was found to be 97.1 mg, the “final HPLC purity” value is recorded as more than 99% and the isolated yield is 50%.

For the substance H2N-NK(Biotin)VPNLRGDLQVLAQKVARt-OH, the isolated mass is reported as 45.3 mg, the “final HPLC purity” value is given as more than 95% and the isolated yield stood at 19%.

For the substance “H2N-NK(Biotin)VPNLRGDLQVLAQ[diaminopropionic acid]VART-OH”, the isolated mass was 59.9 mg, the “final HPLC purity” value is more than 99% and the isolated yield is listed as 25%.

Turning to “H2N-NK(Biotin)VPNLRGDLQVLAQ[ornithine]VART-OH”, the isolated mass came to 63.5 mg, the “final HPLC purity” value is more than 99% and the isolated yield came to 26%.

On to H2N-NK(Biotin)VPNLRGDLQVLAQkVART-OH, for which the isolated mass is on record as 54.3 mg, the “final HPLC purity” value is reported as more than 99% and the isolated yield is 22%.

Consider “H2N-NK(Biotin)VPNLRGDLQV[2-amino-3-ethylpentanoic acid]AQKVART-OH”, for which the isolated mass is 10.1 mg, the “final HPLC purity” value is listed as more than 99% and the isolated yield was found to be 4%.

For “H2N-NK(Biotin)VPNLRGDLQV[adamantylglycine]AQKVART-OH”, the isolated mass worked out at 22.4 mg, the “final HPLC purity” value is recorded as more than 99% and the isolated yield is 9%.

“H2N-NK(Biotin)VPNLRGDLQV[allylglycine]AQKVART-OH”: the isolated mass amounted to 5.5 mg, the “final HPLC purity” value is reported as more than 99% and the isolated yield is 2%.

Take “H2N-NK(Biotin)VPNLRGDLQV[aminoisobutyric acid]AQKVART-OH”: the isolated mass turned out to be 16.6 mg, the “final HPLC purity” value is on record as more than 99% and the isolated yield was 7%.

“H2N-NK(Biotin)VPNLRGDLQV[cyclohexylalanine]AQKVART-OH”: the isolated mass turned out to be 6.2 mg, the “final HPLC purity” value was more than 99% and the isolated yield is 2%.

As to “H2N-NK(Biotin)VPNLRGDLQV[homoleucine]AQKVART-OH”, the isolated mass is listed as 26.1 mg, the “final HPLC purity” value is more than 99% and the isolated yield is 11%.

As for “H2N-NK(Biotin)VPNLRGDLQV[norleucine]AQKVART-OH”, the isolated mass is 18.7 mg, the “final HPLC purity” value is reported as more than 99% and the isolated yield came to 8%.

As for H2N-nK(Biotin)VPNLRGDLQVLAQKVART-OH, the isolated mass came out at 47.7 mg, the “final HPLC purity” value was more than 95% and the isolated yield turned out to be 19%.

H2N-nK(Biotin)VPNLRGDLQVLAQKVARt-OH: the isolated mass is on record as 36.4 mg, the “final HPLC purity” value is more than 95% and the isolated yield is reported as 15%.

Turning to “N-NK(Biotin)VPNLRGDLQVLAQ[diaminobutyric acid]VART-OH”, the isolated mass was 70.3 mg, the “final HPLC purity” value is on record as more than 99% and the isolated yield is recorded as 29%.
